In PMC10870245 one finds binding data, which are given here for one substance.

Results are given in words; binding and its absence hold for the method and conditions named. Binding seen in cells or lysates may run through a third protein. Some results given as binding are weak or reduced against the parent protein; the word gives no strength. Sequences can lack the tags named with a protein.

This experiment addresses T1, PDZ-binding kinase (FLAG-PBK) (UniProt Q96KB5).
T1 sequence: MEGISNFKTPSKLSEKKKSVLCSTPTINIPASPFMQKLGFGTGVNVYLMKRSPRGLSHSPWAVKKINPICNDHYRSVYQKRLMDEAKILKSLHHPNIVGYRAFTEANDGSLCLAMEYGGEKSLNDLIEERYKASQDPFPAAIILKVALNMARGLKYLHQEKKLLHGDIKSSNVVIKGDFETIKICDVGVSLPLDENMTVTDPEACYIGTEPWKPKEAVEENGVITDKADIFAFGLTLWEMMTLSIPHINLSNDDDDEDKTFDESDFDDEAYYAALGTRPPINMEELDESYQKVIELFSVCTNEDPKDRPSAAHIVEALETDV
Description: co-IP; HEK293 cells transfected with GFP-CDK5 and FLAG-PBK; beads with anti-FLAG or GFP antibodies; Western blot.

Take “cyclin-dependent kinase 5 (GFP-CDK5) (from UniProt Q00535 1-292) (enzyme)”: the binding result was “binds”.
